Among the data in doi:10.1101/2024.07.16.603715 are binding values, retold here.

Chains of the proteins cited; added tags and fusions are not shown. Residues count along the entry.
UniProt B0V2N1, residues 30-1907: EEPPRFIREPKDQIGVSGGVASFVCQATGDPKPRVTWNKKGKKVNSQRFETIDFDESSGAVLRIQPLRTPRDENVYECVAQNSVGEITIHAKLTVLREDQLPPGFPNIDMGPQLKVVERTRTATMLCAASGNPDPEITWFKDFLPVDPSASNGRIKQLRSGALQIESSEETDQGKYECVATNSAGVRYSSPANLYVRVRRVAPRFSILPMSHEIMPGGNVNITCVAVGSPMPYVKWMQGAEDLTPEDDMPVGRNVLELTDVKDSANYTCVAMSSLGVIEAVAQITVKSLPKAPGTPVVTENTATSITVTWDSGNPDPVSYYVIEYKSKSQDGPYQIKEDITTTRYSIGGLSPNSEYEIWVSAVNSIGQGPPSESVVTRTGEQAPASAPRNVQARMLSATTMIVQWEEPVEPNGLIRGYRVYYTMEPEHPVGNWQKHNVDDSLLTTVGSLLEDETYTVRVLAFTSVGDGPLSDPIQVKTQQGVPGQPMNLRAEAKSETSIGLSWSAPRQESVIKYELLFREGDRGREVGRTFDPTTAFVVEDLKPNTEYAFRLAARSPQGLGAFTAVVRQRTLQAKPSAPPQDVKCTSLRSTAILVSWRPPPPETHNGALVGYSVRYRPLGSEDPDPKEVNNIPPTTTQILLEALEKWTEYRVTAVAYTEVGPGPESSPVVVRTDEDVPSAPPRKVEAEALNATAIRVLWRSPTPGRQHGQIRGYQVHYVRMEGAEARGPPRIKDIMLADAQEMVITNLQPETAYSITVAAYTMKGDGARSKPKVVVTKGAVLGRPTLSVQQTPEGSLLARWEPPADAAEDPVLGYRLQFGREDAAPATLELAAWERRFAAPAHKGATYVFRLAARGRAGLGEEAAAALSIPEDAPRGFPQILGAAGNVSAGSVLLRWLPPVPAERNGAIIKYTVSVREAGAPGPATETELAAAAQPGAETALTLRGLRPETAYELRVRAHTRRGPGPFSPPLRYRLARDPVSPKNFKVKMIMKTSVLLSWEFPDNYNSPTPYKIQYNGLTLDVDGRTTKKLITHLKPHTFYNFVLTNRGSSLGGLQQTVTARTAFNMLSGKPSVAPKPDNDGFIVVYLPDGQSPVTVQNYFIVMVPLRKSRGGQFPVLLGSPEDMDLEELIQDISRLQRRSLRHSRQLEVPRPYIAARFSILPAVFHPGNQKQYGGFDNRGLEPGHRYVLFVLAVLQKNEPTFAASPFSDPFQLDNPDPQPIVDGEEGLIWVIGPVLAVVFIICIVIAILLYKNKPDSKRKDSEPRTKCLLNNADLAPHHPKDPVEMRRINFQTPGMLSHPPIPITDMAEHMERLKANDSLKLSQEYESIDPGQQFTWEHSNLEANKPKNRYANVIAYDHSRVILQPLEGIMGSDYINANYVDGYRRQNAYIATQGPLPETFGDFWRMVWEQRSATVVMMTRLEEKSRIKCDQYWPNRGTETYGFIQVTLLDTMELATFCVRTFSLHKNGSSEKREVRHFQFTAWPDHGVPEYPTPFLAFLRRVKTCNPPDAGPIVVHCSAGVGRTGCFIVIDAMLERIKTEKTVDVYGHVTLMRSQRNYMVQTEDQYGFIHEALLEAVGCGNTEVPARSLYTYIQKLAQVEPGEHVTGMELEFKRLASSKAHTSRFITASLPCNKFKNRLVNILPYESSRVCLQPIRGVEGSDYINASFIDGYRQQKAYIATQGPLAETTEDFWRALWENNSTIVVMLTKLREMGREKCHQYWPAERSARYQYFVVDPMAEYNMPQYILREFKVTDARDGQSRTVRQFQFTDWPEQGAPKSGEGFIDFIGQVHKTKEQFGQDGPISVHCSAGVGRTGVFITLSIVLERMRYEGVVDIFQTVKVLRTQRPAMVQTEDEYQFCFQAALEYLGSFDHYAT
UniProt Q6P9K9, residues 28-1571: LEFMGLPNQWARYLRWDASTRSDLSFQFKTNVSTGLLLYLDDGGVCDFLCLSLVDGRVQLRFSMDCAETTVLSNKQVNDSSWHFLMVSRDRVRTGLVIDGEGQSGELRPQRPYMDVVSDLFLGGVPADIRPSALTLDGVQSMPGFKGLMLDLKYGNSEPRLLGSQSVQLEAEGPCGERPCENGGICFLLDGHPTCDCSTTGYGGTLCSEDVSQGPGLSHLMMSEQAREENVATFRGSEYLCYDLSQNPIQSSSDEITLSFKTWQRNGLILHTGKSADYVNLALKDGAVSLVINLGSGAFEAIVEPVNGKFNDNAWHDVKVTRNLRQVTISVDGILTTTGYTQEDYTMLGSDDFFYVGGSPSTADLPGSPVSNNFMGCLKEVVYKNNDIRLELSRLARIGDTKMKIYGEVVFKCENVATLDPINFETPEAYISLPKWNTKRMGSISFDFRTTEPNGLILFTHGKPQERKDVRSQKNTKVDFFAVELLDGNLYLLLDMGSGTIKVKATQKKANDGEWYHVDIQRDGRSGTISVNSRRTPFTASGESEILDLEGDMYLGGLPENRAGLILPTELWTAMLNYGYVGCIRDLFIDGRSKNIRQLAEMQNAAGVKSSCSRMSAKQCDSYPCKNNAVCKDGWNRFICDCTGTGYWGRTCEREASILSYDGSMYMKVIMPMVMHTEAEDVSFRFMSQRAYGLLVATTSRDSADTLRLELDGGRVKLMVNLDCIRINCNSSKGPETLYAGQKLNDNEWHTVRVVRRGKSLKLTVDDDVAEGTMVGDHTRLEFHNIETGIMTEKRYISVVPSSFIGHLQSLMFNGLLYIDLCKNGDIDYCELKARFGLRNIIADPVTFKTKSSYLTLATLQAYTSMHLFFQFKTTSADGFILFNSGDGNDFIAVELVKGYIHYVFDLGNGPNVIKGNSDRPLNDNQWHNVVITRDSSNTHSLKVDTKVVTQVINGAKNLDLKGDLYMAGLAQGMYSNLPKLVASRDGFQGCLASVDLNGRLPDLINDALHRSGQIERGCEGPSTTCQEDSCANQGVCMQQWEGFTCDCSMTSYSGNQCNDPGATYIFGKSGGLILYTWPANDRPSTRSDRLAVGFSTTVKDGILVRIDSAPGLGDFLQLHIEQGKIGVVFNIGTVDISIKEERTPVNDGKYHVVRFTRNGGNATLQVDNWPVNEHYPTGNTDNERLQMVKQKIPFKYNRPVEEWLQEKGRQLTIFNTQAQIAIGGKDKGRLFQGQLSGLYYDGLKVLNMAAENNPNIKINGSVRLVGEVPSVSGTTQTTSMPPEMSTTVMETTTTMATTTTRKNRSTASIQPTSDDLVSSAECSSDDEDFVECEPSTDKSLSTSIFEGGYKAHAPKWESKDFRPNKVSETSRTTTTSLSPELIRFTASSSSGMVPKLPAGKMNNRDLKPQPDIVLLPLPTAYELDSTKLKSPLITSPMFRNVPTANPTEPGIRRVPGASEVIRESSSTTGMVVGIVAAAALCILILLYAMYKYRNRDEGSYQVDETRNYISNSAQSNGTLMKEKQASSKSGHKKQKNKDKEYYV

Where two headings read alike, the source gives them in different places. These are yes or no findings as the source states them, for the method shown. Binding seen in cells or lysates may run through a third protein. Some entries that bind do so weakly or less than the wild type.

The target in assay [1] is V5-tagged PTPRS (UniProt B0V2N1). As to the kind of experiment: co-IP.
The target is the same in assay [2]. The experiment in a line: co-IP. The source holds these as a separate data set.

In the case of “HA-tagged NRX3A (from UniProt Q6P9K9 28-1571)”, the binding entry in assay [1] is recorded as “binds weakly”; in assay [2] it was “binds”.
